According to paper PMC11839074:
No constants are given. Whether binding was seen depends on the method and setting. In cells and extracts the contact can be indirect. Here binding means that the protein was enriched with, or labelled near, the bait; the list need not be complete.

The chains behind the UniProt entries cited, without tags or fusion partners. Residues count along the entry.
UniProt Q3UCV8: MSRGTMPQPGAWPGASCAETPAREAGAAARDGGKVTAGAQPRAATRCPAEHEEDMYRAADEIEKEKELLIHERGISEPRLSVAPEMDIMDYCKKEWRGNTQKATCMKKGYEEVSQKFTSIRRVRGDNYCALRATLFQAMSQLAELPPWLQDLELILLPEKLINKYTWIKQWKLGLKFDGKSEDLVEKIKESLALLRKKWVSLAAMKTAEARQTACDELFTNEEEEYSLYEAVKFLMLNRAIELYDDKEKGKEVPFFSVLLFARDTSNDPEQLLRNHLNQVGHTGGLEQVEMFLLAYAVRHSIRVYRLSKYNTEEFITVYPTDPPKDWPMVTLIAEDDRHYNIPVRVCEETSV
UniProt Q7TPH6: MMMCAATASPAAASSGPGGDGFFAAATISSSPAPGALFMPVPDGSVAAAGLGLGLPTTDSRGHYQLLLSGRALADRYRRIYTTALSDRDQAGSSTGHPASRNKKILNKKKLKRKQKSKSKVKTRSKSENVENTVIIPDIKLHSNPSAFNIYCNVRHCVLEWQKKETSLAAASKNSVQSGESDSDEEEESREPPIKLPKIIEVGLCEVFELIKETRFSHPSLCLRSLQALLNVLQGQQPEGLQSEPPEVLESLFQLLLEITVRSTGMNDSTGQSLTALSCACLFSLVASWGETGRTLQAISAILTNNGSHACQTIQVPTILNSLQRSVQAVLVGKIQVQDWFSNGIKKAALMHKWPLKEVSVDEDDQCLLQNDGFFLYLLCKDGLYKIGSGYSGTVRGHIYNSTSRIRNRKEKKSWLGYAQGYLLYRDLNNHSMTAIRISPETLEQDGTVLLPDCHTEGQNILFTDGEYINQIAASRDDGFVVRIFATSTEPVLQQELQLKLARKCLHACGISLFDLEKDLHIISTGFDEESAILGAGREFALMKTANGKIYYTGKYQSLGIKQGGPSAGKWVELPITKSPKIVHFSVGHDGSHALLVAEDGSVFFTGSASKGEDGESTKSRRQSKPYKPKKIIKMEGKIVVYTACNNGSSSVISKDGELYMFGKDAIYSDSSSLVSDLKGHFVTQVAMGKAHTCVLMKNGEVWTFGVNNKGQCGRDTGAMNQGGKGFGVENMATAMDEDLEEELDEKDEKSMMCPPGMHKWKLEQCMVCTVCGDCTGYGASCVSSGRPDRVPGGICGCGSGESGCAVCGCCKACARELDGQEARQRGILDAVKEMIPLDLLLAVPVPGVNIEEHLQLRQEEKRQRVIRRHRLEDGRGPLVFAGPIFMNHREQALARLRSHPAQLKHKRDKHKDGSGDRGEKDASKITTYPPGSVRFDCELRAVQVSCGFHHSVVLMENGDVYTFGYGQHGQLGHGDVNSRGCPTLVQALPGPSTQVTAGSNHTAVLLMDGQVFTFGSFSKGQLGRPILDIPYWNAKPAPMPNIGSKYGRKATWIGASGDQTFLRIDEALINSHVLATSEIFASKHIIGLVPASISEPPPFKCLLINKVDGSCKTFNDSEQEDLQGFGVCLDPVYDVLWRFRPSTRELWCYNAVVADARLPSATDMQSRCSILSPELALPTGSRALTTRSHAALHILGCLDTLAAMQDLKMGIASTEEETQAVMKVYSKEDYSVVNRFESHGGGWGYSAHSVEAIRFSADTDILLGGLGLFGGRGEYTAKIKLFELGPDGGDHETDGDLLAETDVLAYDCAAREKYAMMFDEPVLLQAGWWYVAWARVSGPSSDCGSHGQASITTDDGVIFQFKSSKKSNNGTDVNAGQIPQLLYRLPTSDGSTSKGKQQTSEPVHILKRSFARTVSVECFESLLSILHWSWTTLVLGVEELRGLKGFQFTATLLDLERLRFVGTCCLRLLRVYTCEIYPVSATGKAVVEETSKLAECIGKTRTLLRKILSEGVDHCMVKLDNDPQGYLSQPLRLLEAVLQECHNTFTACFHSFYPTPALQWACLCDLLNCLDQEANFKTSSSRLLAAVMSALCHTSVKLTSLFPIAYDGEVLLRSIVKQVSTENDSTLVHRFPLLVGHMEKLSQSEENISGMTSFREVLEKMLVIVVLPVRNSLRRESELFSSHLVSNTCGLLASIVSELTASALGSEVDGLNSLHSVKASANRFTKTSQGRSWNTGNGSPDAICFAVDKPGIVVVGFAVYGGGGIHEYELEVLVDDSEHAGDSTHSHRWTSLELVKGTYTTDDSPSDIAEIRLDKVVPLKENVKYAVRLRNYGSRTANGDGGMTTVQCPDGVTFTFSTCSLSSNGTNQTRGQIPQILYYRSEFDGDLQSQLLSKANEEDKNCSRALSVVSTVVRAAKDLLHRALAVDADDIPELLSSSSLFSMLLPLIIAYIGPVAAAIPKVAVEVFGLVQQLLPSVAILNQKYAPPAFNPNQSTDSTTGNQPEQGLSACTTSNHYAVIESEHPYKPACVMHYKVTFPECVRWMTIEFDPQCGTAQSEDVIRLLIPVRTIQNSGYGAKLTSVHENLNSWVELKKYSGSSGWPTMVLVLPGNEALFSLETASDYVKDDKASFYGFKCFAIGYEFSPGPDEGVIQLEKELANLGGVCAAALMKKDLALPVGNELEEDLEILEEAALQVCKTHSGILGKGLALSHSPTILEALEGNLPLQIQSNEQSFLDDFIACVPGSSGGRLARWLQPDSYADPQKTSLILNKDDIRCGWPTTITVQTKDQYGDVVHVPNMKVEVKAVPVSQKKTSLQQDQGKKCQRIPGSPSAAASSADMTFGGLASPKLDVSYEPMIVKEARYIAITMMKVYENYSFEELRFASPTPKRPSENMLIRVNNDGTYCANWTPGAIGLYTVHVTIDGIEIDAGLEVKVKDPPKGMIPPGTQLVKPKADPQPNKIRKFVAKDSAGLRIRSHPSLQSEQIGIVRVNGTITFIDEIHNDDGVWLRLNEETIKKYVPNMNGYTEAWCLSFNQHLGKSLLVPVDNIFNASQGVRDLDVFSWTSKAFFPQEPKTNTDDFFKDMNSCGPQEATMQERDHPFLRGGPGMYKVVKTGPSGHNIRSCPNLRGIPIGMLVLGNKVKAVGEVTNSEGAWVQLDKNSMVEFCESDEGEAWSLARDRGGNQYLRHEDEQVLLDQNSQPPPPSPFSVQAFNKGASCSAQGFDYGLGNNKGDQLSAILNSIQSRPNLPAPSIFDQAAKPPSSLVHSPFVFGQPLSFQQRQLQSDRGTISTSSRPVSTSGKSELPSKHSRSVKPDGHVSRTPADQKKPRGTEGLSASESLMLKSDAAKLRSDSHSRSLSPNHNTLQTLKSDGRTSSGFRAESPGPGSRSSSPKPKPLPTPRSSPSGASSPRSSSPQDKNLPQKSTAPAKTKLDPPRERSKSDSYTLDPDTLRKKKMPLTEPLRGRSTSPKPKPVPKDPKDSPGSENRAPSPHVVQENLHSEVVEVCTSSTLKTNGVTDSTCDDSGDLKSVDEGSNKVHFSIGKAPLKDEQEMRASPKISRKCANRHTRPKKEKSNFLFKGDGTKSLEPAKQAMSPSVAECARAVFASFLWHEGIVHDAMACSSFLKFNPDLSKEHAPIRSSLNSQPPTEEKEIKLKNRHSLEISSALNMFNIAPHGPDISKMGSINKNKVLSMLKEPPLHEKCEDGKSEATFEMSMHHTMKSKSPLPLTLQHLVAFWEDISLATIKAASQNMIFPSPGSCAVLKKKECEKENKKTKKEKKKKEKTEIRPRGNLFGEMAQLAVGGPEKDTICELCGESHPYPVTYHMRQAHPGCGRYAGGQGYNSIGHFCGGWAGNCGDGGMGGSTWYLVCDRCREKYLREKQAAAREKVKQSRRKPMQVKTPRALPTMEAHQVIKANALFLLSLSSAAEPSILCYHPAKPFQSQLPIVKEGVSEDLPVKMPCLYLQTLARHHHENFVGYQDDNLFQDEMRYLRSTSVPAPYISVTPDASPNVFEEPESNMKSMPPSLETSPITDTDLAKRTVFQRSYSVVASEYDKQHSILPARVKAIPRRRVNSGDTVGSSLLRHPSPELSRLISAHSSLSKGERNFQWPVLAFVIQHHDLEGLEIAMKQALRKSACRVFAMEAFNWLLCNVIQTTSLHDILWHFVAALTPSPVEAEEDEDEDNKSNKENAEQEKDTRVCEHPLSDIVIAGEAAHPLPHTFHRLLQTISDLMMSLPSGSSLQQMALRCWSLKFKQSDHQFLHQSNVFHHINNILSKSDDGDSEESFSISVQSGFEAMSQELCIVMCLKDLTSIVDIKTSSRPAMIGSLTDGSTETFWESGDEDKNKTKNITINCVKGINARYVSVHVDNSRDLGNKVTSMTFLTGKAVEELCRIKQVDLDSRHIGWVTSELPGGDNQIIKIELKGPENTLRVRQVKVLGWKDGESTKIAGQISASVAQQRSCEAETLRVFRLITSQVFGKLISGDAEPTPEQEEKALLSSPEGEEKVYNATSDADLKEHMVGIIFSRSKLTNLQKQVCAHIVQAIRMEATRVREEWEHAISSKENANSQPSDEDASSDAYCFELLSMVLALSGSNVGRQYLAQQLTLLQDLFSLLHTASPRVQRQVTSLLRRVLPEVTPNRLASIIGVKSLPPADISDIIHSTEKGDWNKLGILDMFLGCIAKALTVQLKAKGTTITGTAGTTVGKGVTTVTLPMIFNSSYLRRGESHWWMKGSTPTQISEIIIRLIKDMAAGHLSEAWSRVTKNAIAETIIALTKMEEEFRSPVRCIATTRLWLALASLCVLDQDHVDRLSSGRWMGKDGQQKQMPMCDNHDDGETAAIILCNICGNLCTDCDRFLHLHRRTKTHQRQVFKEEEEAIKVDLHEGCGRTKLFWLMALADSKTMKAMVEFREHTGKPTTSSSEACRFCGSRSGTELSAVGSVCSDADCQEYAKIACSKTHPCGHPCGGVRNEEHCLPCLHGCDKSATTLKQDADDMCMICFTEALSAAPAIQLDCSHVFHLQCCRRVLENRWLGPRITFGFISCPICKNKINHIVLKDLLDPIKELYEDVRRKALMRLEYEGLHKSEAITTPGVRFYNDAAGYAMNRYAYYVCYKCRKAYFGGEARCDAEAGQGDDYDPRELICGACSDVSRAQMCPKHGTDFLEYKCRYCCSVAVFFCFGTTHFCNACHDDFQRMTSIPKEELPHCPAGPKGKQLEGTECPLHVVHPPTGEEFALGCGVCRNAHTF
UniProt P14106, residues 26-253: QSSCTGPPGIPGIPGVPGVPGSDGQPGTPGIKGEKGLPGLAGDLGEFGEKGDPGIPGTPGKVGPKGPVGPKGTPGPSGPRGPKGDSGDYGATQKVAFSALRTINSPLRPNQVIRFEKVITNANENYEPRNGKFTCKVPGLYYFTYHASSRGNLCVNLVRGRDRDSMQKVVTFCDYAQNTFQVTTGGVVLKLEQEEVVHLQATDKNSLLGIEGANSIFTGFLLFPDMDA

Columns and labels:
[1] = molecular target: OTULIN (mouse (endogenous in hippocampal tissue)) (UniProt Q3UCV8); assay: affinity purification with mass spectrometry; PS19 Tg mice, 8 months, hippocampal lysate (IP lysis buffer, 0.5% NP-40, 150 mM NaCl); OTULIN antibody on Dynabeads protein A, 4 °C overnight, IgG as control, three replicates; LC-MS/MS, limma and SAINTexpress scoring
[2] = molecular target: OTULIN (mouse (endogenous in hippocampal tissue)) (UniProt Q3UCV8); assay: affinity purification with mass spectrometry; nTg littermate control mice, 8 months, hippocampal lysate (IP lysis buffer, 0.5% NP-40, 150 mM NaCl); OTULIN antibody on Dynabeads protein A, 4 °C overnight, IgG as control, three replicates; LC-MS/MS, limma and SAINTexpress scoring
[3] = molecular target: OTULIN (mouse (endogenous in hippocampal tissue)) (UniProt Q3UCV8); assay: as above; remark: listed apart in the source

Molecule	binding [1]	binding [2]	binding [3]
C3 (from UniProt P01027 25-1663)	binds	binds	
C4B (from UniProt P01029 20-1738)	binds	binds	
MYCBP2 (from UniProt Q7TPH6 1-4749)	binds	binds	
Cactin (CACTIN) (protein, UniProt Q9CS00 1-772) MRGAGRQMGRDSRSRSRSVGRRGRKQRSRSRGRSRSRSRSRSRSRSRSRSRSRSHGRSSRRRREHERRRERKRRSRGRRSDSEGEQRQKSRRRSQSLRPPRWHSQNQSSCSDSGEERAQGSWARKGHRRSWSPGSSASSLDSPRRSRSPGTATLALSQQQSLQERLRLREERKQQEELLKAFETPEEKRARRLAKKEAKERKKREKMGWGEEYMGYTNTDNPFGDNNLLGTFIWNKALEKKGISHLEEKELKERNKRIQEDNRLELQKVKQLRLEREREKAMREQELELLQREKEAEHFKTWEEQEDSFHLRQAKLRSKIRIRDGRAKPIDLLAKYISAEDDDLAVEMHEPYTFLNGLTVADMEDLLEDIQVYMELEQGKNVDFWRDMTTITEDEIAKLRKLEASGKGPGERREGVNASVSSDVQSVFKGKTYNQLQVIFQGIEGKIRAGGPNLDMGYWESLLQQLRAHMARARLRERHQDVLRQKLFKLKQEQGVESEPLFPILKSEPSAAHSPEPEERPPSPGTSVDPVEPVEPEEATAPGEAEGEAEGEAVLMEEDLIQQSLADYDAGRYSPRLLTAHELPLDAHVLEPHEDLQRLQLSRQQLQATGDASESAEDIFFRRAREGMGQDEAQFSVEMPLGGRAYLWADKYRPRKPRFFNRVHTGFEWNKYNQTHYDFDNPPPKIVQGYKFNIFYPDLIRKRATPEYFLEACADNRDFAILRFHAGPPYEDIAFKIVSREWEYSHRHGFRCQFANGIFQLWFHFKRYRYRR	binds		
C1QC (protein, UniProt Q02105 30-246) SAGCYGIPGMPGMPGAPGKDGHDGLQGPKGEPGIPAVPGTRGPKGQKGEPGMPGHRGKNGPRGTSGLPGDPGPRGPPGEPGVEGRYKQKHQSVFTVTRQTTQYPEANALVRFNSVVTNPQGHYNPSTGKFTCEVPGLYYFVYYTSHTANLCVHLNLNLARVASFCDHMFNSKQVSSGGVLLRLQRGDEVWLSVNDYNGMVGIEGSNSVFSGFLLFPD	binds		binds

Next, values leading:

binding [1]	binding [2]	binding [3]	Molecule
binds	binds		C1QB (from UniProt P14106 26-253)
binds		binds	TRIM21 (protein, UniProt Q62191 1-470) MSPSTTSKMSLEKMWEEVTCSICLDPMVEPMSIECGHCFCKECIFEVGKNGGSSCPECRQQFLLRNLRPNRHIANMVENLKQIAQNTKKSTQETHCMKHGEKLHLFCEEDGQALCWVCAQSGKHRDHTRVPIEEAAKVYQEKIHVVLEKLRKGKELAEKMEMDLTMQRTDWKRNIDTQKSRIHAEFALQNSLLAQEEQRQLQRLEKDQREYLRLLGKKEAELAEKNQALQELISELERRIRGSELELLQEVRIILERSGSWNLDTLDIDAPDLTSTCPVPGRKKMLRTCWVHITLDRNTANSWLIISKDRRQVRMGDTHQNVSDNKERFSNYPMVLGAQRFSSGKMYWEVDVTQKEAWDLGVCRDSVQRKGQFSLSPENGFWTIWLWQDSYEAGTSPQTTLHIQVPPCQIGIFVDYEAGVVSFYNITDHGSLIYTFSECVFAGPLRPFFNVGFNYSGGNAAPLKLCPLKM
binds		binds	C1QA (protein, UniProt P98086 23-245) EDVCRAPNGKDGAPGNPGRPGRPGLKGERGEPGAAGIRTGIRGFKGDPGESGPPGKPGNVGLPGPSGPLGDSGPQGLKGVKGNPGNIRDQPRPAFSAIRQNPMTLGNVVIFDKVLTNQESPYQNHTGRFICAVPGFYYFNFQVISKWDLCLFIKSSSGGQPRDSLSFSNTNNKGLFQVLAGGTVLQLRRGDEVWIEKDPAKGRIYQGTEADSIFSGFLIFPSA
